Assay results published in EP0296574A2, “Cholecystokinin analogs for controlling appetite” (F. HOFFMANN-LA ROCHE AG, priority 1987, dated 1988).
Part of at least one peptide drawing is inferred or uncertain, most often the ends. Where a SMILES comes first, the peptide text is derived from it. [ ]: non-standard residue; d: D form. Thr(SO3H) = C[C@@H](OS(=O)(=O)O)[C@H](N)C(=O)O; sY = N[C@@H](Cc1ccc(OS(=O)(=O)O)cc1)C(=O)O; NMeF = CN[C@@H](Cc1ccccc1)C(=O)O; Nle = CCCC[C@H](N)C(=O)O

Test: Two-meal feeding assay
Type: in vivo, Male Sprague-Dawley (CD) rats
Settings: rats
[1] = Dose 1 microgm/Kg intraperitoneally 15 min before first meal
[2] = Dose 3 microgm/Kg intraperitoneally 15 min before first meal
[3] = Dose 10 microgm/Kg intraperitoneally 15 min before first meal
[4] = Dose 16 microgm/Kg intraperitoneally 15 min before first meal
[5] = Dose 32 microgm/Kg intraperitoneally 15 min before first meal
[6] = Dose 320 microgm/Kg intraperitoneally 15 min before first meal

Row | SMILES | Food Intake 1st Meal % of Control [1] | Food Intake 2nd Meal % of Control [1] | Food Intake 1st Meal % of Control [2] | Food Intake 2nd Meal % of Control [2] | Food Intake 1st Meal % of Control [3] | Food Intake 2nd Meal % of Control [3] | Food Intake 1st Meal % of Control [4] | Food Intake 2nd Meal % of Control [4] | Food Intake 1st Meal % of Control [5] | Food Intake 2nd Meal % of Control [5] | Food Intake 1st Meal % of Control [6] | Food Intake 2nd Meal % of Control [6]
1 | CCCC[C@H](NC(=O)[C@H](Cc1ccc(OS(=O)(=O)O)cc1)NC(C)=O)C(=O)NCC(=O)N[C@@H](Cc1c[nH]c2ccccc12)C(=O)N[C@@H](CCCC)C(=O)N[C@H](C(=O)N(C)[C@@H](Cc1ccccc1)C(N)=O)[C@@H](C)OS(=O)(=O)O [Example 1, Ac-Tyr(SO₃H)-Nle-Gly-Trp-Nle-Thr(SO₃H)-N-methyl-Phe-NH₂] (Ac-[sY][Nle]GW[Nle][Thr(SO3H)][NMeF]-NH2) | 36 ± 4 % of Control | 71 ± 13 % of Control | 23 ± 13 % of Control | 59 ± 6 % of Control | 13 ± 1 % of Control | 62 ± 8 % of Control | 27 ± 17 % of Control | 45 ± 11 % of Control | 21 ± 12 % of Control | 52 ± 13 % of Control |  | 
2 | CSCC[C@H](NC(=O)[C@H](Cc1c[nH]c2ccccc12)NC(=O)CNC(=O)[C@H](Cc1ccc(OS(=O)(=O)O)cc1)NC(C)=O)C(=O)N[C@H](C(=O)N(C)[C@@H](Cc1ccccc1)C(N)=O)[C@@H](C)OS(=O)(=O)O [Example 2, Ac-Tyr(SO₃H)-Gly-Trp-Met-Thr(SO₃H)-N-methyl-Phe-NH₂] (Ac-[sY]GWM[Thr(SO3H)][NMeF]-NH2) |  |  | 86 ± 16 % of Control | 120 ± 13 % of Control |  |  |  |  | 36 ± 8 % of Control | 141 ± 9 % of Control | 4 ± 5 % of Control | 121 ± 3 % of Control
